PubChem BioAssay AID1053208 | Peter MacCallum Cancer Centre | 2014

Screen: 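Find knock-downs that sensitise mouse osteosarcoma cells to doxorubicin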 (primary screen)
System: mouse osteosarcoma cells, early-passage culture from an engineered mouse model of fibroblastic bone tumour
Knock-down reagent: siRNA pool against mouse genes, 40 nM
Duration: about 120 h (48 h before drug, then 72 h with drug)
Treatment: doxorubicin 100 nM for 72 h, roughly 30-40% inhibitory dose
Detection: 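Luminescent ATP signal taken as viability with or without 100 nM doxorubicin for 72 h; mean of two wells set against non-targeting siRNA and turned into robust z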
Direction: viability z-score with doxorubicin: higher = more viable cells under doxorubicin; viability z-score without drug: higher = more viable cells with knock-down alone
Rule for the call: 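Called active if knock-down leaves viability unchanged without drug (z within -2 to 2) but lowers it with doxorubicin (z at or under -2)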
Here is a random part of about 17,000 deposited reagents. 788 of them (4.7%) count as active. 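Calls rest on z-score classes alone; an extra cut-off of viability at most 70% of control was not applied to them.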 Reagents against one gene are numbered here. Not all columns of the deposit are shown.

Gene | reagent | combined z-score class | viability z-score with doxorubicin | viability z-score without drug | Outcome
Cdhr5 | 1 | no change with or without drug | 0 | -0.84 | inactive
Cpq | 1 | low cell count with doxorubicin only | -3.04 | 0.17 | active
Cdca2 | 1 | no change with or without drug | 0.11 | -0.17 | inactive
Khk | 1 | no change with or without drug | 1.46 | 0.17 | inactive
Golga4 | 1 | no change with or without drug | 0.79 | -1.18 | inactive
Npc2 | 1 | no change with or without drug | 0.45 | -0.51 | inactive
Ofd1 | 1 | no change with or without drug | 1.46 | 0.51 | inactive
Rab19 | 1 | no change with or without drug | 0.45 | 0.51 | inactive
Zdhhc1 | 1 | no change with or without drug | 0.9 | 0.51 | inactive
Peg3 | 1 | no change with or without drug | -1.35 | -1.18 | inactive
Faf2 | 1 | no change with or without drug | 0 | -0.17 | inactive
Tmie | 1 | high cell count with doxorubicin only | 2.02 | 1.85 | inactive
Neurog1 | 1 | no change with or without drug | -0.22 | 0.84 | inactive
Ache | 1 | no change with or without drug | -0.22 | -0.17 | inactive
Arsa | 1 | high cell count with and without drug | 2.36 | 2.53 | inactive
Trak2 | 1 | no change with or without drug | 1.69 | 0.51 | inactive
Ccdc68 | 1 | low cell count with doxorubicin only | -2.02 | -1.69 | active
Rpusd2 | 1 | no change with or without drug | 0.9 | -0.34 | inactive
Irf5 | 1 | no change with or without drug | -0.45 | 1.01 | inactive
Slit2 | 1 | no change with or without drug | 1.35 | 0.51 | inactive
Vamp8 | 1 | no change with or without drug | 0.22 | 0.51 | inactive
Rbak | 1 | no change with or without drug | 1.69 | 1.85 | inactive
Ccdc137 | 1 | high cell count with doxorubicin only | 2.02 | 0.84 | inactive
Oog4 | 1 | no change with or without drug | -0.45 | 0.84 | inactive
Or6c213 | 1 | no change with or without drug | 0.45 | -0.84 | inactive
Tmem145 | 1 | no change with or without drug | 0 | 0 | inactive

Next part; the last 5 above are carried over.
Gene | reagent | combined z-score class | viability z-score with doxorubicin | viability z-score without drug | Outcome
Rbak | 1 | no change with or without drug | 1.69 | 1.85 | inactive
Ccdc137 | 1 | high cell count with doxorubicin only | 2.02 | 0.84 | inactive
Oog4 | 1 | no change with or without drug | -0.45 | 0.84 | inactive
Or6c213 | 1 | no change with or without drug | 0.45 | -0.84 | inactive
Tmem145 | 1 | no change with or without drug | 0 | 0 | inactive
Arfgap3 | 1 | no change with or without drug | -1.57 | -1.35 | inactive
Dnaaf4 | 1 | no change with or without drug | -1.12 | 1.18 | inactive
Gbp6 | 1 | no change with or without drug | -0.67 | -0.51 | inactive
Mdm2 | 1 | no change with or without drug | 1.35 | -0.17 | inactive
Txnl1 | 1 | no change with or without drug | 0.22 | 0.67 | inactive
Hoxa6 | 1 | no change with or without drug | 0.22 | 0.17 | inactive
Snap91 | 1 | no change with or without drug | 1.12 | 0.51 | inactive
Misp | 1 | no change with or without drug | 0.9 | 1.35 | inactive
Nherf4 | 1 | no change with or without drug | 0.22 | 0.17 | inactive
Irak1bp1 | 1 | no change with or without drug | 0.22 | -0.51 | inactive
Npy5r | 1 | no change with or without drug | 0.34 | -0.34 | inactive
Sorl1 | 1 | no change with or without drug | -1.24 | -0.34 | inactive
Cdc50b | 1 | no change with or without drug | 0.45 | -1.01 | inactive
Dnajc5b | 1 | no change with or without drug | 0.67 | 1.52 | inactive
Ston2 | 1 | no change with or without drug | -0.34 | -0.51 | inactive
Ferd3l | 1 | no change with or without drug | 0.56 | 1.01 | inactive
Sh3gl1 | 1 | no change with or without drug | -0.9 | -1.18 | inactive
Or6s1 | 1 | no change with or without drug | 0 | 1.52 | inactive
Sag | 1 | no change with or without drug | -0.9 | 0.17 | inactive
Tmem168 | 1 | no change with or without drug | 0.45 | 0.17 | inactive
Iba57 | 1 | no change with or without drug | -1.24 | 1.01 | inactive
Iba57 | 2 | no change with or without drug | -0.9 | 0.84 | inactive
Or1l4 | 1 | no change with or without drug | -0.56 | -0.51 | inactive
Mab21l4 | 1 | no change with or without drug | -1.35 | 1.01 | inactive
Zg16 | 1 | high cell count without drug only | 1.8 | 4.72 | inactive
Tfap2a | 1 | high cell count without drug only | 1.12 | 2.19 | inactive
Or10k2 | 1 | no change with or without drug | -0.45 | -1.01 | inactive
Rom1 | 1 | no change with or without drug | 0.11 | 0.34 | inactive
Psma7 | 1 | low cell count with and without drug | -5.4 | -4.22 | inactive
Ccl22 | 1 | no change with or without drug | -0.45 | -0.34 | inactive
Or6c219 | 1 | no change with or without drug | 0.67 | 0 | inactive
Fbxl8 | 1 | no change with or without drug | -0.67 | 0.51 | inactive
Ahr | 1 | no change with or without drug | -0.79 | -0.51 | inactive
Etnk1 | 1 | no change with or without drug | -1.12 | 0.17 | inactive
Asb3 | 1 | no change with or without drug | -0.45 | -0.17 | inactive
Nipal4 | 1 | low cell count with and without drug | -3.48 | -2.19 | inactive
Nrarp | 1 | low cell count without drug only | -1.57 | -2.19 | inactive
